{"source": "patent US12472152B2", "about": "“Molecular entrapment via homopolymer self-assembly” (Northwestern University, priority 2019, dated 2025)", "experiment": "Loading experiments: encapsulation efficiency during PPSU20 self-assembly (fluorescence of supernatant)", "assay_type": "physicochemical", "conditions": "text summary of Table 1, stepwise hydration strategy", "procedure": "Loading experiments. For the loading of Nile red, nanogels were prepared using pure water and Nile red-containing (0.1 mg/mL) DMSO solutions of PPSU20. For the loading of water-soluble drugs, aqueous solutions of FITC (0.05 mg/mL), doxorubicin hydrochloride (1 mg/mL), dextran (1 mg/mL), albumin (various concentrations), GFP (0.2 mg/mL), RNA (0.2 mg/mL), DNA (0.2 mg/mL), and DMSO solutions of PPSU20 (25 mg/mL) were used. Typically, 100 μL of the corresponding aqueous solution were mixed stepwise (10 μL/step or 100 μL/step) with 50 μL of PPSU20 solution under vortex, then another 400 μL of water was added. After centrifugation at 16000×g for 10 min, fluorescence of the supernatant was measured and the encapsulation efficiencies were calculated.", "note": "Some entries share one result that the patent states for a list of compounds.", "data": [{"substance": "fluorescein isothiocyanate [FITC]", "values": [{"measurement": "encapsulation efficiencies (EE)", "value": "> 95", "unit": "%"}]}]}
